Test results: paper PMC12320866
Results are given in words; binding and its absence hold for the method and conditions named. In cells and extracts the contact can be indirect. Some results given as binding are weak or reduced against the parent protein; the word gives no strength. For some of these results: Sequences can lack the tags named with a protein.

The chains behind the UniProt entries cited, without tags or fusion partners.
UniProt Q96PU5: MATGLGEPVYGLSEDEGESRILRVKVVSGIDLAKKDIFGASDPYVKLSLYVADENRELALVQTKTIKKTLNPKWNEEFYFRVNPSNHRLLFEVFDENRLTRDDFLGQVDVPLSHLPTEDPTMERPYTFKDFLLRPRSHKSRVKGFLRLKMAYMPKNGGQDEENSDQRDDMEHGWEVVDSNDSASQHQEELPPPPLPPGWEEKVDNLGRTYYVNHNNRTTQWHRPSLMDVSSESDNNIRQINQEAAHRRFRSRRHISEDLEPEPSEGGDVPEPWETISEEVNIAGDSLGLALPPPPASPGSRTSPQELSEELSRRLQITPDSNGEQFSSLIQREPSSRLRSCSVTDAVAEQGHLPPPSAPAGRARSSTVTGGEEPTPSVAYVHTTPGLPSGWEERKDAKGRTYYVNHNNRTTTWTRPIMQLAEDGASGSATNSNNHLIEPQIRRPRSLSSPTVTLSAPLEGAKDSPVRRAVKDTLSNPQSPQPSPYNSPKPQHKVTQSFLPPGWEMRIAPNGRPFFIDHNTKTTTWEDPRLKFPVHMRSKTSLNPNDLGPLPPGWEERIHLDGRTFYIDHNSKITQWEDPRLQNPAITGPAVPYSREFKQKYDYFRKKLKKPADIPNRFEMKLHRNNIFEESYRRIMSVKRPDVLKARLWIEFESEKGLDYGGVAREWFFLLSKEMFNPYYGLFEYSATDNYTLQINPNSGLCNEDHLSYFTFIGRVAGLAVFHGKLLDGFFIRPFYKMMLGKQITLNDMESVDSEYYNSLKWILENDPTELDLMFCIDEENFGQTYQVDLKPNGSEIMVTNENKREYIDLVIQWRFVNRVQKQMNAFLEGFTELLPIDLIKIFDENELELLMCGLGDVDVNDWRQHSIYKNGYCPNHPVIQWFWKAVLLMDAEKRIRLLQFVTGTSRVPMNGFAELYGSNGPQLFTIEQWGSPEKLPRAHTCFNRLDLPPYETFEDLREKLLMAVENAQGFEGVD
UniProt Q16665: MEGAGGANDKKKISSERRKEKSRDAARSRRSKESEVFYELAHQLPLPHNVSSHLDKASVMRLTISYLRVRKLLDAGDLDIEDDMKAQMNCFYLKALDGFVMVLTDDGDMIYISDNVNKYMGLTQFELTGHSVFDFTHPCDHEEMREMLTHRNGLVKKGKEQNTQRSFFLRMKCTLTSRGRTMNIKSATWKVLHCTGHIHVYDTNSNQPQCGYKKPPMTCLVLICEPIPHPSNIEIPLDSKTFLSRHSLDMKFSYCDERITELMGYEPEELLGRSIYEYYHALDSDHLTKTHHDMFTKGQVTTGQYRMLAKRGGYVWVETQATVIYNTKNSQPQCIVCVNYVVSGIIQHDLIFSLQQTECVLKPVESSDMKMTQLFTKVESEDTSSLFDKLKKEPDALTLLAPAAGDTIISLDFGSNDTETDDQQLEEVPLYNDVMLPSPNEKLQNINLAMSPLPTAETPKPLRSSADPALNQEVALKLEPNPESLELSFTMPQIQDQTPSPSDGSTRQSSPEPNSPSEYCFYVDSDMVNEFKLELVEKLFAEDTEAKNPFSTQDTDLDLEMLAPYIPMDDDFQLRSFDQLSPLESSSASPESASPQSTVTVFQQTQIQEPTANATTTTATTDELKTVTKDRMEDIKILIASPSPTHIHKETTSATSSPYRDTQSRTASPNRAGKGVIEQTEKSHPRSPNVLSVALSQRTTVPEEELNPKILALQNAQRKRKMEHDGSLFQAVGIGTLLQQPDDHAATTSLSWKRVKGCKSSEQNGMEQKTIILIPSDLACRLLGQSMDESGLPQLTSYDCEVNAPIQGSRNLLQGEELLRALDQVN

Legend:
[1] = target: T1, Flag-RAB11FIP3-FL (full-length RAB11FIP3) (human) (UniProt O75154); experiment: co-IP; Flag-RAB11FIP3-FL and His-HIF-1α co-transfected into HUVECs; lysate, magnetic beads and specific antibodies, Western blot
T1 sequence: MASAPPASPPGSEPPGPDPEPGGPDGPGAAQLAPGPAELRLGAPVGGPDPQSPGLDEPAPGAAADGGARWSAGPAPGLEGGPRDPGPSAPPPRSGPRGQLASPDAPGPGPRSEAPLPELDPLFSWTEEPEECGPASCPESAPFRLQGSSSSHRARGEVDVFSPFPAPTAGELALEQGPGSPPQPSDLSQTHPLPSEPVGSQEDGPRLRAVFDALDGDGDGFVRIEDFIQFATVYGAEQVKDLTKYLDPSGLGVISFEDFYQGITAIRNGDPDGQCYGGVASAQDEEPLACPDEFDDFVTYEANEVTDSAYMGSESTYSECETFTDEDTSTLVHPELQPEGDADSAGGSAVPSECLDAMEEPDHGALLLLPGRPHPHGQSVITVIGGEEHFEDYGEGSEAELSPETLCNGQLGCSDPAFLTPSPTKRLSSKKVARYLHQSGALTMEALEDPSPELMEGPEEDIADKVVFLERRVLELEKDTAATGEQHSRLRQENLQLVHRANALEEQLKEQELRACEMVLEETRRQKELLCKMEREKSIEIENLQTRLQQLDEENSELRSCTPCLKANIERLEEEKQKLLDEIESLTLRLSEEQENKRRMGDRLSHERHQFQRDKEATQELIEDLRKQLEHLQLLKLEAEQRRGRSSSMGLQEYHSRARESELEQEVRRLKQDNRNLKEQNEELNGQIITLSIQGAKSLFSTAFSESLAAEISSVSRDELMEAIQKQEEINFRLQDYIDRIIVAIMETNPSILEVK

HA-NEDD4L = HA-NEDD4L (UniProt Q96PU5); experiment: co-IP; HUVECs co-transfected with His-HIF-1α, HA-NEDD4L and Flag-RAB11FIP3-FL; anti-HA and anti-His antibodies
[2] = target: endogenous NEDD4L (human (endogenous in HUVECs)) (UniProt Q96PU5); experiment: co-IP; HUVEC lysate; whether the proteins were endogenous or transfected is not stated
[3] = target: T2, endogenous RAB11FIP3-FL (human (endogenous in HUVECs)) (UniProt O75154); experiment: co-IP; endogenous proteins, cell lysate, magnetic beads and specific antibodies, Western blot
T2 sequence: T1 sequence

| binding [1] | binding (HA-NEDD4L) | binding [2] | binding [3] | Substance |
| --- | --- | --- | --- | --- |
| binds | binds |  |  | His-HIF-1α (from UniProt Q16665 1-826) |
|  |  | binds | binds | endogenous HIF-1α (from UniProt Q16665 1-826) |
